Results: the supplement of paper PMC12823440, “Inhibitors supercharge kinase turnover through native proteolytic circuits” (Nature, 2025)
This is one part of the list. Hit calls seldom repeat between salt and free forms of one compound.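 Kinases, fused to nanoluciferase, were expressed in K562 cells; luminescence was measured every 4 h from 2 to 18 h as percent of control (DMSO = 100%, positive control = 0%). A time point is decreased if signal falls significantly (2 sigma). Hits were called by the authors by a rule that is not shown; the count of time points alone does not decide it.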

Chains of the proteins cited; added tags and fusions are not shown. Lines headed by an entry give the natural chain unless they say otherwise; changes in a name come on top.
UniProt Q08345: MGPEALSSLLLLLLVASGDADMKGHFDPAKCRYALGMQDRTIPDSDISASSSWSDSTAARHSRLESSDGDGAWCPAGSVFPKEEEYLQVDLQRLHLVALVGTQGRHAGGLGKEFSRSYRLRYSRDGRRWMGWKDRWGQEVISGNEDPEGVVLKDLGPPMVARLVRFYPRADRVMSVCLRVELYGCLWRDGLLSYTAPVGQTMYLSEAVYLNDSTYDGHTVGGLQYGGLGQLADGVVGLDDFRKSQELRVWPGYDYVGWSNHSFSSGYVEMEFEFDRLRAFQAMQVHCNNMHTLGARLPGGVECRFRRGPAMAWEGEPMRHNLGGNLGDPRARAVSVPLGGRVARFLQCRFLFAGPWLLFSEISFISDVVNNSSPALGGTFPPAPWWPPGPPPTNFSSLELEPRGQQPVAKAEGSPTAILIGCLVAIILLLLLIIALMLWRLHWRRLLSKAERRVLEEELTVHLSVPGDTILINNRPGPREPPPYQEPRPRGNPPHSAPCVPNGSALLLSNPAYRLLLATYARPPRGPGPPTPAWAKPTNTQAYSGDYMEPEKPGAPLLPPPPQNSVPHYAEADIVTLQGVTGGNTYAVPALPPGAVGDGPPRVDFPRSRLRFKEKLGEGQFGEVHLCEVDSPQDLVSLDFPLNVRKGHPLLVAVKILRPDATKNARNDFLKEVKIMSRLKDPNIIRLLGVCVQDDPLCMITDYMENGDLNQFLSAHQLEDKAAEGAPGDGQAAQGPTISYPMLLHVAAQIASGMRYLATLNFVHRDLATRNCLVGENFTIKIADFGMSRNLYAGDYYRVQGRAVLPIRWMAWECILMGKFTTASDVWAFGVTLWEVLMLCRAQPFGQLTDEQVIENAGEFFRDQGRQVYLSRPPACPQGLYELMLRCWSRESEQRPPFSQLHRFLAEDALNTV

These compounds were tested against DDR1 (UniProt Q08345) (assay: kinase-Nluc reporter destabilization hit call (1 = scored as downregulated) (binary); higher = compound decreases kinase abundance). Conditions: K562; 2-18 h.

kinase-Nluc reporter destabilization hit call, inactive:
CC(C)(C)n1nc(Cc2cccc3ccccc23)c2c(N)ncnc21 (10 µM) 0
CC1(C)CC=C(c2nc(C3CC(C)(C)OC(C)(C)C3)ccc2NC(=O)c2nc(C#N)c[nH]2)CC1 [Edicotinib] (2.5 µM) 0
CC(C)CC(=O)Nc1n[nH]c2c1CN(C(=O)C1CCN(C)CC1)C2(C)C (2.5 µM) 0
Nc1ncnc2c1c(-c1ccc(Oc3ccccc3)cc1)cn2C1CCCC1 (2.5 µM) 0
CC(=O)NCC(=O)N1[C@@H]2CC[C@H]1c1ccc(Nc3ncc(C(F)(F)F)c(NC4CCC4)n3)cc12 (2.5 µM) 0
Cc1nc(-c2cnc(NC(C)C)n(C)c2=O)ccc1Oc1ccnc(-c2cnn(C)c2)c1 (2.5 µM) 0
CCCS(=O)(=O)Nc1ccc(F)c(C(=O)c2c[nH]c3ncc(Cl)cc23)c1F (10 µM) 0
COc1ccc2c(NC(=O)Nc3cccc(C(F)(F)F)n3)ccnc2c1 (10 µM) 0
COCCNCCc1cccc(Nc2ncc3c(n2)-c2ccccc2[C@H](c2ccccc2F)C3)c1 [Derazantinib] (2.5 µM) 0
CNC(=O)c1ccccc1Nc1nc(Nc2ccc(N3CCOCC3)cc2OC)ncc1Cl (2.5 µM) 0
Cc1c(C(=O)N2CCOc3ccc(-c4ccc(N)nc4)cc3C2)ccc(S(C)(=O)=O)c1F (10 µM) 0
Cc1ccc(NC(=O)Nc2nnc(Sc3ncnc4cc(OCCCN5CCOCC5)ccc34)s2)cc1 (10 µM) 0
N#CC(=Cc1ccc(O)c(O)c1)C(=O)NCc1ccccc1 (mixture of isomers) (10 µM) 0
COc1ccc(COc2ccc(Cc3cnc(N)nc3N)cc2OC)cc1 (10 µM) 0
CC(=O)N1CCN(c2ccc(OCC3COC(Cn4ccnc4)(c4ccc(Cl)cc4Cl)O3)cc2)CC1 (stereo unspecified) [Ketoconazole] (2.5 µM) 0
NC(=O)c1ccc2nc(-c3ccc(Oc4ccc(Cl)cc4)cc3)[nH]c2c1 (10 µM) 0
CNc1nc(-c2ccc3c(N)n[nH]c3c2)cc(N2C[C@@H](C(=O)NC3CCCCC3)CC[C@H]2C)n1 (10 µM) 0
Cc1nc(N)sc1-c1ccnc(Nc2ccc(N3CCOCC3)cc2)n1 (10 µM) 0
O=c1oc2ccccc2c(O)c1Cc1c(O)c2ccccc2oc1=O [Dicoumarol] (10 µM) 0
CCc1nc(-c2cccc(C)c2)c(-c2ccnc(NC(=O)c3ccccc3)c2)s1 (10 µM) 0
CC(C)(C)c1cc(NC(=O)Nc2ccc(-c3cn4c(n3)sc3cc(OCCN5CCOCC5)ccc34)cc2)no1 [Quizartinib] (10 µM) 0
COc1cc2ncn(-c3cc(OCc4ccccc4C(F)(F)F)c(C(N)=O)s3)c2cc1OC (10 µM) 0
CCn1cc(-c2ccnc3[nH]c(-c4cccc(CN(C)C)c4)cc23)c(-c2ccc(NC(=O)N(C)C)cc2)n1 (2.5 µM) 0
O=C1c2ccccc2-c2n[nH]c3cccc1c23 (10 µM) 0
C[C@]1(O)C[C@@H](c2nc(-c3ccc4ccc(-c5ccccc5)nc4c3)c3c(N)nccn32)C1 [Linsitinib] (2.5 µM) 0
C[C@H](CN(C)C)Oc1nc(Nc2cc3cccc(Cl)c3cn2)cnc1C#N (10 µM) 0
Cc1cc(C)c(/C=C2\C(=O)Nc3ccccc32)[nH]1 [Semaxinib] (10 µM) 0
Cc1cccc(Cn2nc(C3CC3)c3c(NC(=O)c4cnc5cc(OCCN6CCN(C)CC6)ccn45)cccc32)n1 (10 µM) 0
COc1cc(OC)cc(-c2cc3cnc(N)nc3nc2NC(=O)NC(C)(C)C)c1 (10 µM) 0
CN(c1ncccc1CNc1nc(Nc2ccc3c(c2)CC(=O)N3)ncc1C(F)(F)F)S(C)(=O)=O (2.5 µM) 0
COc1ccc2c(C(=O)Nc3ccc(NC(=O)c4nn(C5CCN(C(=O)CC(C)(C)C#N)CC5)c5ccc(F)cc45)cc3Cl)cnn2c1 [Src Inhibitor 3] (2.5 µM) 0
Oc1ccc(-c2nc(-c3ccc(F)cc3)c(-c3ccncc3)[nH]2)cc1 (2.5 µM) 0
COc1cc(Nc2ncc3c(n2)-c2ccc(Cl)cc2C(c2c(F)cccc2OC)=NC3)ccc1C(=O)O [Alisertib] (2.5 µM) 0
O=c1c(-c2ccc(O)cc2)coc2cc(O)cc(O)c12 [Genistein] (10 µM) 0
CN1CCN(c2ccc(C(=O)Nc3n[nH]c4ccc(Cc5cc(F)cc(F)c5)cc34)c(NC3CCOCC3)c2)CC1 [Entrectinib] (2.5 µM) 0

At a glance, two of the compounds above.
kinase-Nluc reporter destabilization hit call, inactive:
CC(=O)NCC(=O)N1[C@@H]2CC[C@H]1c1ccc(Nc3ncc(C(F)(F)F)c(NC4CCC4)n3)cc12 (2.5 µM) 0
Cc1nc(-c2cnc(NC(C)C)n(C)c2=O)ccc1Oc1ccnc(-c2cnn(C)c2)c1 (2.5 µM) 0

Following part:

kinase-Nluc reporter destabilization hit call, active:
Cc1ccc(F)c(NC(=O)Nc2ccc(-c3cccc4[nH]nc(N)c34)cc2)c1 [Linifanib] (2.5 µM) 1
